In all, about 33,000 sequences were measured (“E-score (-0.5 to 0.5)”: median about -0.0059, highest 2% from about 0.26 on). The list shows a part of the results.
Biological target: T1, Cin5 (UniProt P40917)
T1 sequence: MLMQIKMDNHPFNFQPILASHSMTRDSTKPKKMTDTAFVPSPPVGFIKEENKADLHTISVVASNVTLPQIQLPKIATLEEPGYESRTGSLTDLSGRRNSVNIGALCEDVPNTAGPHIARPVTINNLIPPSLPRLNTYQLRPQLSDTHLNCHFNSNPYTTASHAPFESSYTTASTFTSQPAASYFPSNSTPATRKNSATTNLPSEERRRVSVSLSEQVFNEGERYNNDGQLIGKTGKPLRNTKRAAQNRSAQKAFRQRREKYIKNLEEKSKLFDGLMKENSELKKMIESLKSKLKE
Assay: PBM E-score (8-mer binding enrichment) (E-score (-0.5 to 0.5)); higher = stronger / more preferred TF binding
Settings: protein concentration: 100 nM; construct: GST-full length
Outline: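 The E-score, a modified Wilcoxon-Mann-Whitney statistic, was computed by the Universal PBM Analysis Suite for every ungapped eight-base word pooled with its reverse complement. Scans behind it were normalised with masliner after bound GST-tagged yeast transcription factors were detected with fluorescent anti-GST. The proteins, at about 100-200 nM, had been applied to universal all-10-mer Agilent arrays made double-stranded by primer extension.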

Sequence | PBM E-score
TCACTCGA | -0.04
AACAGCGT | 0.0292
CGTGACGC | -0.0607
CAAACCCC | -0.059
AATCAGCT | 0.0682
ACAAAGAA | 0.115
GAATAAGC | 0.121
GATAATGC | 0.0879
GATCGGAA | 0.0632
ATTAACTG | 0.237
GTCTCCTA | -0.225
TGCTAGAA | -0.089
CTGAGGCC | -0.0445
AAGCCGTA | 0.0259
GTGGGTCA | -0.0526
AAGGCAGT | 0.0209
AAGGCATA | -0.0243
ACGCATGG | -0.2
GATATCGC | 0.126
ACGTACGG | 0.05
GAATAGAA | 0.173
AGACCGAA | 0.0258
CTGCTAAG | -0.298
GCACACGA | -0.221
CGAGGGCA | -0.0897

Sequence | PBM E-score
ATCGCTAA | 0.0407
ACACAACG | 0.0427
AACTCGCC | 0.141
ACTAGACC | 0.16
ATCGGTGC | -0.0174
AATCATTC | 0.188
ACTTACCG | 0.19
GGAGGCAC | -0.261
CACCTGTA | -0.149
ATACAAAG | 0.127
GACAGAGC | -0.119
GCTACCCA | -0.155
AACTGGGA | -0.0428
AGAGGGTC | -0.334
AAAAAGGG | -0.0374
AGGGAAAA | -0.00546
CTGCATTC | 0.127
CAACACAC | 0.106
AAGTCGTC | -0.133
TACCCCTA | 0.141
TAGATCTA | 0.117
ATATCAAA | 0.166
AGCCGTTC | -0.271
GGTCGGAC | -0.21
CGCAAGCG | -0.101

Sequence | PBM E-score
AGTGTAGA | 0.0156
CAGGCCTG | -0.128
CGCAGGGA | -0.129
ACTCGATG | 0.1
CCTCAGGA | -0.00304
ACTGGGTG | -0.04
AAAACCCA | 0.248
GCTCGCAA | 0.0666
ACTCTTTC | -0.0901
CCTTCTGA | -0.0192
ATCTAGAA | 0.102
ATGATAAA | 0.188
CATCTAGG | -0.0172
CTTCGTAA | 0.0958
CCTAATAA | 0.0783
ATATACGG | 0.0225
CCCCAAAA | -0.0403
ATAAGCCC | -0.0352
GGATACGA | -0.0639
GCACGAAC | 0.136
GGAATCAC | 0.113
CCATCTAA | -0.0666
AGAGCACG | -0.0527
AACACTAA | 0.028
GGAAATGA | 0.226

Some values from the entries so far:
For PBM E-score, GGAAATGA has the entry 0.226
For PBM E-score, ATCTAGAA has the entry 0.102
For PBM E-score, ACTGGGTG has the entry -0.04
For PBM E-score, CCTCAGGA has the entry -0.00304
For PBM E-score, CCTAATAA has the entry 0.0783
For PBM E-score, CTTCGTAA has the entry 0.0958

Further results:

Sequence | PBM E-score
GATAAGGA | -0.0531
AACAACTG | 0.135
AATCACGT | 0.17
CGCTAGCA | -0.187
ATGTCGGG | -0.0236
CAGATCGA | 0.0169
AGGCCGAG | -0.0405
TGGCTGAA | -0.0107
CTCCAAAG | -0.0924
AAGATGCC | 0.0779
ACTTTAGC | -0.0814
AGGGGAAC | -0.212
CCTACTCG | -0.0287
CATAAACC | 0.161
AGGTATGG | -0.114
GATACATC | 0.134
ATGTCTAC | -0.234
AAAAAACT | -0.189
ATGTTGGA | 0.184
GCTTTCCA | -0.0168
GGTTTTCA | 0.0843
CATTTCCC | 0.189
ATAATGCC | -0.0311
TACTCTGA | 0.0471
CGTCCTAA | -0.103

Sequence | PBM E-score
GCGTGCAC | -0.115
CATAACGG | -0.021
CGCGTTAC | 0.127
GACCTAGA | -0.0788
GTTAAAAC | -0.0559
TTCTAAAA | -0.174
AAGTAGCA | 0.038
CCTGTCAG | -0.0565
ATGGAACC | -0.0476
ACTGCGCC | -0.195
ACGGGTCT | -0.292
AGGATTTC | 0.122
AAAATACA | 0.103
CGAATAGC | -0.00363
CAGTCACC | -0.208
GAAGGGCA | -0.205
ACCTTGTG | -0.0491
ATAACAAA | 0.226
ACAACTTA | 0.184
AGACAGGG | -0.263
GTCCGTTA | 0.12
AGCCTGTG | -0.126
ATCTCTAC | 0.108
CACTGCCG | -0.104
GACTTTAA | -0.00088

Sequence | PBM E-score
GTCATGCA | 0.00703
CCCCCACG | -0.434
ACATCGGA | -0.037
CTTCCTGC | -0.233
CAGTGCTA | -0.0638
AAATTAAG | 0.0939
CCATGCGG | -0.108
CTATAACC | -0.144
AGTTATTA | 0.199
AGGACTTG | -0.201
GCGAAGGA | -0.156
GTATAGGA | -0.0959
GCCCCAGC | -0.0437
AAGTTCCC | -0.0726
CCCATCAA | 0.0995
TGCTGCCA | -0.0641
CACCTTCC | 0.0119
ATTCCACA | 0.266
AAAGTCTA | -0.0672
ACTGACGC | -0.208
GAGAACAA | 0.269
TGAATCAA | 0.149
ATCATCTC | 0.165
ACGTAGAA | 0.105
GTTCAACA | 0.0706

Sequence | PBM E-score
AAACACCA | -0.00871
ACGGCCCA | -0.17
ATTGGGCA | -0.0554
CAGTCTAG | -0.296
AGTTTCCG | 0.147
CTAGGTCA | -0.107
ATCGCTGG | -0.194
CGCCCGGA | 0.0086
GGTTCCAC | -0.0569
CACTGCAA | 0.0112
ACGTCGCT | -0.0654
CCATAAGG | -0.181
TAAGGTCA | 0.0703
AATCGGCG | -0.0653
ACCCCTAA | 0.0174
ACAAAGGT | 0.0396
ACAAACGT | -0.0354
ACACACAA | 0.132
CGAGCGCC | -0.287
CGAGGACC | -0.154
AGCTGAGG | -0.181
CCGGTTCG | -0.166
